Measured values: publication PMC10928564
These are yes or no findings as the source states them, for the method shown. In cells and extracts the contact can be indirect. Some entries that bind do so weakly or less than the wild type.

Protein sequences, listed by entry. Tags and fused reporters are not part of them.
UniProt P70372: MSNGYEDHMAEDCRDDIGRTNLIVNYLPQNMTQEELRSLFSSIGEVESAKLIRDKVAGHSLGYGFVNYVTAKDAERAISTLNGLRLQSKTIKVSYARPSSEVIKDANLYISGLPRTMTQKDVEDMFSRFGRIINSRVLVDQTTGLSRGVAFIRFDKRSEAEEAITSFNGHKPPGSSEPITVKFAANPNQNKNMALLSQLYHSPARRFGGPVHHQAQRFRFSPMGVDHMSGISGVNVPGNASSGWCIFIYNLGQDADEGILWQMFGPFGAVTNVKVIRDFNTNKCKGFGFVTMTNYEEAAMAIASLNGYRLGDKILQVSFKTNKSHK
UniProt Q02248: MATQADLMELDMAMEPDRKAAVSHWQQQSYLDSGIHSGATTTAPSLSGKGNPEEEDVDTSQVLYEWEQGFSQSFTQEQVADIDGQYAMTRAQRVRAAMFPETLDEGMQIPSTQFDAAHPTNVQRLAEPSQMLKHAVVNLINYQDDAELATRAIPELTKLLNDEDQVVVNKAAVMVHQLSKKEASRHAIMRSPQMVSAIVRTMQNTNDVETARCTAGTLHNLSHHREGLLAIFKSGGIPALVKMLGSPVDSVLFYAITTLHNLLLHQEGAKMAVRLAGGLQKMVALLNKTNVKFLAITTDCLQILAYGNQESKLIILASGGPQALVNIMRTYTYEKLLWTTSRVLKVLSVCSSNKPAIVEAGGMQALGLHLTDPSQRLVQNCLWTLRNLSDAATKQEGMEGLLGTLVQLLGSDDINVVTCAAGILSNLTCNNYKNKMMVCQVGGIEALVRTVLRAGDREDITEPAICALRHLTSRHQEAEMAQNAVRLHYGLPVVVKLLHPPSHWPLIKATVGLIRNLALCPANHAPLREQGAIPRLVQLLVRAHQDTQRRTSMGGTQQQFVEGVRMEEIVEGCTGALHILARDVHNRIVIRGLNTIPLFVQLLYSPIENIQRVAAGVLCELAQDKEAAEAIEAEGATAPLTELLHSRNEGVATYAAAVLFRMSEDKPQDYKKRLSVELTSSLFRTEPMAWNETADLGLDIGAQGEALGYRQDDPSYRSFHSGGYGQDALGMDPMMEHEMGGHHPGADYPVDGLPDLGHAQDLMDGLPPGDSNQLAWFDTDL

Target: human antigen R (HuR) (mouse (endogenous in MC3T3-E1)) (UniProt P70372)
Experiment: co-IP; anti-HuR antibody (5 μg) on Protein A + G magnetic beads, lysate of 2 × 10^7 MC3T3-E1 cells, overnight at 4°C, western blot; cells with or without 500 μM sodium arsenite (SA) for 30 min, and HuR-knockdown cells; anti-IgG as control

β‐catenin (from UniProt Q02248 1-781)
binding: binds
